We go through two compounds from patent US8293758B2, “Substituted spirocyclic cyclohexane derivatives” (dated 2012).

The chains behind the UniProt entries cited, without tags or fusion partners.
UniProt P41146, whole entry: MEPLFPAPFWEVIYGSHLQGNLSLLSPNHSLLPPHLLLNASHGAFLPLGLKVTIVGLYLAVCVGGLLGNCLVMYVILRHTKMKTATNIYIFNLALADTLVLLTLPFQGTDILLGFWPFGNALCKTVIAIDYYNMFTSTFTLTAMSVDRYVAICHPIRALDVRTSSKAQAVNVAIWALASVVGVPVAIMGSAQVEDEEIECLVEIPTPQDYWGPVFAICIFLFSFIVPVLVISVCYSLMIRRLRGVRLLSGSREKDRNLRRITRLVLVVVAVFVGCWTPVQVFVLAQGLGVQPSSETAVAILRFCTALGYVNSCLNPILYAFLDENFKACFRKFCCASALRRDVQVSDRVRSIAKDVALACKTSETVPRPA
UniProt P35372, whole entry: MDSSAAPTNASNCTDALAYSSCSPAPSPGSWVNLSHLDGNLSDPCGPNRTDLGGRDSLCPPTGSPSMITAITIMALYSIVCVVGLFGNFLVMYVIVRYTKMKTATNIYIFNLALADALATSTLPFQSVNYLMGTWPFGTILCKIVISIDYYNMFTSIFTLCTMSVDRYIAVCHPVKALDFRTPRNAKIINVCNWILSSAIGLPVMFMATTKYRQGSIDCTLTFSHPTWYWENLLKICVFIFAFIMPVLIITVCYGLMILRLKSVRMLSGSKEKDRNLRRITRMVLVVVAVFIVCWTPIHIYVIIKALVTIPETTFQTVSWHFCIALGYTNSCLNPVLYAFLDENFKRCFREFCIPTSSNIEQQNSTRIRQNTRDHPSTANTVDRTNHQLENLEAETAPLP

The target of one assay is ORL 1-receptor (Homo sapiens, UniProt P41146). As to the kind of experiment: ORL 1 receptor binding assay with 3H-nociceptine/orphanin FQ (WGA-SPA beads). Particulars: membranes of recombinant CHO-ORL 1 cells, 0.5 nM 3H-nociceptine/orphanin FQ; for Ki: read-out: Ki (ORL1) Mean, mean; for % Inhibition (ORL1) [1 μM]: test concentration 1 μM.
The next assay concerns the target human μ-opiate receptor (Homo sapiens, UniProt P35372). As to the kind of experiment: μ-opiate receptor binding assay with [3H]-naloxone (WGA-SPA beads). The conditions noted are these: CHO-K1 membrane preparation, 1 nmol/l [3H]-naloxone; for Ki: read-out: Ki (μ) Mean, Cheng-Prusoff, mean; for % Inhibition (μ) [1 μM]: test concentration 1 μM.

Molecules are shown by their SMILES. The structures given here were assigned with low confidence; some may be wrong.

In the case of `COC(=O)CC1CC(c2ccccc2)(N(C)C)CCC12OCCc1c2[nH]c2ccccc12` (single isomer, unassigned) [Ex. 14], on ORL 1-receptor, the Ki is 6 nM and the “% Inhibition (ORL1) [1 μM]” value was 94%. Further, on human μ-opiate receptor, the Ki was determined as 3 nM and the “% Inhibition (μ) [1 μM]” value came out at 101%.
Turning to `COC(=O)CC1CC(c2ccccc2)(N(C)C)CCC12OCCc1c2[nH]c2ccccc12` (single isomer, unassigned) [Ex. 15], on ORL 1-receptor, the Ki was 335 nM and the “% Inhibition (ORL1) [1 μM]” value was found to be 33%. At human μ-opiate receptor, the Ki came to 165 nM and the “% Inhibition (μ) [1 μM]” value was determined as 68%.
